# Test results as given in the supplement of paper PMC8728848.
# Some of the results follow.
# B1: CcfD (Bacteroides fragilis), Q5L9G4 (protein)
# chain: MKKQNSIYTLLIALLCFVSSCDYLGVSDQLAGGLQNTEQVFDNVSYTKRWYANVFAGIPDYSGINSVNVGAFKNPWTGMCDELVVGYGNSSKYNNSDRNAANMGFHRYGDCYKYIRQANIFLQKAHPIMTTGTQGDQLLEDELTQMKANVRFMRAFYHYLLFEQYGPIILVKDKIYNATEDQDVPRNTVDEVIEYIDSELTAVASELTQEPIFEDKDYRAWPTKGVALAVRAKLWLYAASPLLNGGYREALSVTNPDGTRLFPDYDAGKWEKALAACKDFIDYAEAGRYELYKEYKDDNGAVIDPDKSVYNLFQKYTHEIIWATANNDWGGMNGDAFDRRIAPRCEKNGLGSTGVTQELVDAFYMKDGFPVSATAYLPQSTLYQEEGYGTYKDQNDNFSKKYTNVTVSNRYLNREPRFYNTVFFNGRQWPVSCNQVLFYNGGNSGVQEGQATLTGYMLFKRFNRSVSLTNPGVASQFRPSIIFRLADFYLMYAEAANEVNPNDARVLKYLNLVRERAGLPDIETLNPAIRGNQELQRAAIQRERQIELATEGQRYFDVRRWMIADKNGEGRQNGYVHGMNVRGESNDKEDFNRIVEASQIVFNRKMYLYPMPDSEMRKTKNLVQNPGW
# Key:
# Experiment in all cases: glycan array binding signal (z-score within array); higher = stronger binding
# Settings in all cases: glycan notation: IUPAC condensed, linker removed
# [1] = target: GlcNAc(a1-6)Gal(b1-4)GlcNAc
# How it was run: (§1)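 Negative Z-scores can be read as non-binding. The Z-score is calculated within each array and then averaged across arrays of one protein sequence at different concentrations or buffers and across linkers. Arrays, 3228 in all, were curated from the Consortium for Functional Glycomics database and kept only where the protein sequence was available.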
# [2] = target: GlcNAc(b1-2)Gal(b1-3)GalNAc
# How it was run: as §1
# [3] = target: GlcNAc(b1-2)Man(a1-3)[GlcNAc(b1-2)Man(a1-6)]Man(b1-4)GlcNAc(b1-4)GlcNAc
# How it was run: as §1
# [4] = target: GlcNAc(b1-2)Man(a1-3)[GlcNAc(b1-2)Man(a1-6)]Man(b1-4)GlcNAc(b1-4)[Fuc(a1-6)]GlcNAc
# How it was run: as §1
# [5] = target: GlcNAc(b1-2)Man(a1-3)[GlcNAc(b1-4)][GlcNAc(b1-2)Man(a1-6)]Man(b1-4)GlcNAc(b1-4)GlcNAc
# How it was run: as §1
# [6] = target: GlcNAc(b1-2)Man(a1-3)[GlcNAc(b1-4)][GlcNAc(b1-2)Man(a1-6)]Man(b1-4)GlcNAc(b1-4)[Fuc(a1-6)]GlcNAc
# How it was run: as §1
# [7] = target: GlcNAc(b1-2)[GlcNAc(b1-4)]Man(a1-3)[GlcNAc(b1-2)Man(a1-6)]Man(b1-4)GlcNAc(b1-4)GlcNAc
# How it was run: as §1
# [8] = target: GlcNAc(b1-2)[GlcNAc(b1-4)]Man(a1-3)[GlcNAc(b1-4)][GlcNAc(b1-2)Man(a1-6)]Man(b1-4)GlcNAc(b1-4)GlcNAc
# How it was run: as §1
# [9] = target: GlcNAc(b1-2)[GlcNAc(b1-4)]Man(a1-3)[GlcNAc(b1-4)][GlcNAc(b1-2)[GlcNAc(b1-6)]Man(a1-6)]Man(b1-4)GlcNAc(b1-4)GlcNAc
# How it was run: as §1
# [10] = target: GlcNAc(b1-2)[GlcNAc(b1-4)]Man(a1-3)[GlcNAc(b1-4)][GlcNAc(b1-2)[GlcNAc(b1-6)]Man(a1-6)]Man(b1-4)GlcNAc(b1-4)[Fuc(a1-6)]GlcNAc
# How it was run: as §1
# [11] = target: GlcNAc(b1-2)[GlcNAc(b1-6)]Man(a1-6)[GlcNAc(b1-2)Man(a1-3)]Man(b1-4)GlcNAc(b1-4)GlcNAc
# How it was run: as §1
# [12] = target: GlcNAc(b1-2)[GlcNAc(b1-6)]Man(a1-6)[GlcNAc(b1-2)Man(a1-3)]Man(b1-4)GlcNAc(b1-4)[Fuc(a1-6)]GlcNAc
# How it was run: as §1
# [13] = target: GlcNAc(b1-2)[GlcNAc(b1-6)]Man(a1-6)[GlcNAc(b1-4)][GlcNAc(b1-2)Man(a1-3)]Man(b1-4)GlcNAc(b1-4)GlcNAc
# How it was run: as §1
# GlcNAc(b1-3)Fuc = target: GlcNAc(b1-3)Fuc
# How it was run: as §1
# GlcNAc(b1-3)Gal = target: GlcNAc(b1-3)Gal
# How it was run: as §1
# [14] = target: GlcNAc(b1-3)Gal(b1-3)GalNAc
# How it was run: as §1
# GlcNAc(b1-3)Gal(b1-4)Glc = target: GlcNAc(b1-3)Gal(b1-4)Glc
# How it was run: as §1
# [15] = target: GlcNAc(b1-3)Gal(b1-4)GlcNAc
# How it was run: as §1
# [16] = target: GlcNAc(b1-3)Gal(b1-4)GlcNAc(b1-2)Man(a1-3)[GlcNAc(b1-3)Gal(b1-4)GlcNAc(b1-2)Man(a1-6)]Man(b1-4)GlcNAc(b1-4)GlcNAc
# How it was run: as §1
# [17] = target: GlcNAc(b1-3)Gal(b1-4)GlcNAc(b1-2)Man(a1-3)[GlcNAc(b1-3)Gal(b1-4)GlcNAc(b1-2)Man(a1-6)]Man(b1-4)GlcNAc(b1-4)[Fuc(a1-6)]GlcNAc
# How it was run: as §1
# [18] = target: GlcNAc(b1-3)Gal(b1-4)GlcNAc(b1-2)[GlcNAc(b1-3)Gal(b1-4)GlcNAc(b1-6)]Man(a1-6)[GlcNAc(b1-3)Gal(b1-4)GlcNAc(b1-2)Man(a1-3)]Man(b1-4)GlcNAc(b1-4)GlcNAc
# How it was run: as §1
# [19] = target: GlcNAc(b1-3)Gal(b1-4)GlcNAc(b1-3)Gal(b1-4)GlcNAc
# How it was run: as §1
# [20] = target: GlcNAc(b1-3)Gal(b1-4)GlcNAc(b1-3)Gal(b1-4)GlcNAc(b1-2)Man(a1-3)[GlcNAc(b1-3)Gal(b1-4)GlcNAc(b1-3)Gal(b1-4)GlcNAc(b1-2)Man(a1-6)]Man(b1-4)GlcNAc(b1-4)GlcNAc
# How it was run: as §1
# [21] = target: GlcNAc(b1-3)Gal(b1-4)GlcNAc(b1-3)Gal(b1-4)GlcNAc(b1-2)Man(a1-3)[GlcNAc(b1-3)Gal(b1-4)GlcNAc(b1-3)Gal(b1-4)GlcNAc(b1-2)Man(a1-6)]Man(b1-4)GlcNAc(b1-4)[Fuc(a1-6)]GlcNAc
# How it was run: as §1
# [22] = target: GlcNAc(b1-3)Gal(b1-4)GlcNAc(b1-3)Gal(b1-4)GlcNAc(b1-2)[GlcNAc(b1-3)Gal(b1-4)GlcNAc(b1-3)Gal(b1-4)GlcNAc(b1-6)]Man(a1-6)[GlcNAc(b1-3)Gal(b1-4)GlcNAc(b1-3)Gal(b1-4)GlcNAc(b1-2)Man(a1-3)]Man(b1-4)GlcNAc(b1-4)[Fuc(a1-6)]GlcNAc
# How it was run: as §1
# [23] = target: GlcNAc(b1-3)Gal(b1-4)GlcNAc(b1-3)Gal(b1-4)GlcNAc(b1-3)Gal(b1-4)GlcNAc(b1-2)Man(a1-3)[GlcNAc(b1-3)Gal(b1-4)GlcNAc(b1-3)Gal(b1-4)GlcNAc(b1-3)Gal(b1-4)GlcNAc(b1-2)Man(a1-6)]Man(b1-4)GlcNAc(b1-4)GlcNAc
# How it was run: as §1
# [24] = target: GlcNAc(b1-3)Gal(b1-4)GlcNAc(b1-3)Gal(b1-4)GlcNAc(b1-3)Gal(b1-4)GlcNAc(b1-2)Man(a1-3)[GlcNAc(b1-3)Gal(b1-4)GlcNAc(b1-3)Gal(b1-4)GlcNAc(b1-3)Gal(b1-4)GlcNAc(b1-2)Man(a1-6)]Man(b1-4)GlcNAc(b1-4)[Fuc(a1-6)]GlcNAc
# How it was run: as §1
# [25] = target: GlcNAc(b1-3)Gal(b1-4)GlcNAc(b1-3)Gal(b1-4)GlcNAc(b1-3)Gal(b1-4)GlcNAc(b1-2)[GlcNAc(b1-3)Gal(b1-4)GlcNAc(b1-3)Gal(b1-4)GlcNAc(b1-3)Gal(b1-4)GlcNAc(b1-6)]Man(a1-6)[GlcNAc(b1-3)Gal(b1-4)GlcNAc(b1-3)Gal(b1-4)GlcNAc(b1-3)Gal(b1-4)GlcNAc(b1-2)Man(a1-3)]Man(b1-4)GlcNAc(b1-4)[Fuc(a1-6)]GlcNAc
# How it was run: as §1
# [26] = target: GlcNAc(b1-3)Gal(b1-4)GlcNAc(b1-3)Gal(b1-4)GlcNAc(b1-3)Gal(b1-4)GlcNAc(b1-3)Gal(b1-4)GlcNAc(b1-2)Man(a1-3)[GlcNAc(b1-3)Gal(b1-4)GlcNAc(b1-3)Gal(b1-4)GlcNAc(b1-3)Gal(b1-4)GlcNAc(b1-3)Gal(b1-4)GlcNAc(b1-2)Man(a1-6)]Man(b1-4)GlcNAc(b1-4)GlcNAc
# How it was run: as §1
# [27] = target: GlcNAc(b1-3)Gal(b1-4)GlcNAc(b1-3)Gal(b1-4)GlcNAc(b1-3)Gal(b1-4)GlcNAc(b1-3)Gal(b1-4)GlcNAc(b1-2)Man(a1-3)[GlcNAc(b1-3)Gal(b1-4)GlcNAc(b1-3)Gal(b1-4)GlcNAc(b1-3)Gal(b1-4)GlcNAc(b1-3)Gal(b1-4)GlcNAc(b1-2)Man(a1-6)]Man(b1-4)GlcNAc(b1-4)[Fuc(a1-6)]GlcNAc
# How it was run: as §1
binder,measurement,setting,value
B1,glycan array binding signal (z-score),[1],-1.11
same,glycan array binding signal (z-score),[2],-0.791
same,glycan array binding signal (z-score),[3],1.28
same,glycan array binding signal (z-score),[4],0.259
same,glycan array binding signal (z-score),[5],-0.726
same,glycan array binding signal (z-score),[6],-0.089
same,glycan array binding signal (z-score),[7],-0.995
same,glycan array binding signal (z-score),[8],-0.64
same,glycan array binding signal (z-score),[9],-0.548
same,glycan array binding signal (z-score),[10],1.17
same,glycan array binding signal (z-score),[11],-0.726
same,glycan array binding signal (z-score),[12],0.975
same,glycan array binding signal (z-score),[13],-0.647
same,glycan array binding signal (z-score),GlcNAc(b1-3)Fuc,0.647
same,glycan array binding signal (z-score),GlcNAc(b1-3)Gal,-1.03
same,glycan array binding signal (z-score),[14],-0.696
same,glycan array binding signal (z-score),GlcNAc(b1-3)Gal(b1-4)Glc,-1.03
same,glycan array binding signal (z-score),[15],-1.26
same,glycan array binding signal (z-score),[16],2.55
same,glycan array binding signal (z-score),[17],1.11
same,glycan array binding signal (z-score),[18],2.25
same,glycan array binding signal (z-score),[19],-0.726
same,glycan array binding signal (z-score),[20],1.08
same,glycan array binding signal (z-score),[21],1.14
same,glycan array binding signal (z-score),[22],1.33
same,glycan array binding signal (z-score),[23],0.108
same,glycan array binding signal (z-score),[24],1.5
same,glycan array binding signal (z-score),[25],0.91
same,glycan array binding signal (z-score),[26],0.568
same,glycan array binding signal (z-score),[27],1.82

# Already shown: entries from further up.
binder,measurement,setting,value
B1,glycan array binding signal (z-score),[24],1.5
same,glycan array binding signal (z-score),[25],0.91
